From paper PMC7312952
These are yes or no findings as the source states them, for the method shown. Binding seen in cells or lysates may run through a third protein. Binding calls can cover weak binding; strength is not graded here. Where a sequence is shown, tags or fusion partners need not be part of it.

Target: OsPYL/RCAR7-GFP (rice (Oryza sativa cv. Dongjin))
Experiment: co-IP; rice protoplasts co-transformed; extracts on GFP-trap beads, 4 °C, 2 h; 150 mM NaCl, 50 mM Tris-HCl pH 7.5, 1 mM EDTA, 2 mM EGTA, 2 mM MgCl2, 0.5% NP40, 0.5% Triton X-100; OsPYL/RCAR7-GFP precipitated, OsPP2C51 detected with anti-HA; without and with ABA

- binding: binds
B1: OsPP2C51 with 3xHA tag (enzyme, UniProt Q65XK7 1-381)
chain: MRETGATDEGHACEVVVAGGDGKAAAARRRRRLELRRLGLAAEDDAAAKRIRSVKDGSSSDDSSTEVVPRSWPACVSHGSVSVIGRRREMEDAVAIERTFMASTGDGAGAIRGGGEGEEDFFAVYDGHGGSRVAEACRKRMHVVLAEEVSLRRLRGQSASGGDVRWKEAMLASFARMDGEVVGSVAAAAPRVDGTEPSGFRTVGSTAVVAVVGRRRIVVANCGDSRAVLSRGGVALPLSTDHKPDRPDELERVEAAGGRVINWNGYRVLGVLATSRSIGDYYLKPFVSAEPEVRVVERTDKDEFLILASDGLWDVVSNEVACKIARNCLNGRAASMFPESVSGSSAADAAALLAELAVSRGSRDNISVVVVELRRLKSRAA
